Some of these results come from one statement about several compounds together.
Assay: degree of cleaning fabrics: Lab differences, whiteness and yellowness index of soil test cloth
Conditions: soil test cloth of polyester; times of dry-cleaning not stated
Method: In the tests of the degree of cleaning fabrics in Examples 1 to 9, four kinds of standard soil test cloths are taken, the types of the cloth are respectively polyester, cotton, wool, polyester/cotton. The conditions of the tests of degree of cleaning fabrics are similar to those of the above dry-cleaning tests. After the soil test cloths have been dry cleaned, the reflectance, the whiteness index and the yellowness index thereof are measured by means of a color matching system to identify the degree of cleaning fabrics of the dry-cleaning solvents.
After the soil test cloths of polyester/cotton, wool, cotton and polyester are respectively dry-cleaned with the dry-cleaning solvents, the degrees of cleaning the soil test cloths of the dry-cleaning solvents is measured. The dry-cleaning procedure is carried out under the conditions that temperature is 25±2° C., liquid ratio is 1:40 and dry cleaning time is 30 minutes in a shaking manner and then the soil test cloths which have been dry-cleaned are dried under the temperature of 60±2° C.
Color differences can be analyzed according to Munsell Color Solid Theory and a bright and a chroma of a hue can be decided by means of a solid rectangular coordinate. […]

For ClC(Cl)=C(Cl)Cl [perchloroethylene], the bright difference was > 6.
